The subject of this assay is L1210 leukemia ip in BDF1 mice, survival T/C. In words: NCI In Vivo Anticancer Drug Screen. Data for tumor model L1210 Leukemia (intraperitoneal) in B6D2F1 (BDF1) mice. Particulars: T/C endpoint: mean survival time, higher T/C = longer survival.
The mark [1] stands for this setting: dose: 200.0 mg/kg/injection, schedule: Q01DX001 (ip), vehicle: carboxymethylcellulose (CMC).
The mark [2] stands for this setting: dose: 400.0 mg/kg/injection, schedule: Q01DX001 (ip), vehicle: carboxymethylcellulose (CMC).
Setting [3] is: dose: 100.0 mg/kg/injection, schedule: Q01DX009 (ip), vehicle: saline with Tween-80.
[4] abbreviates: dose: 300.0 mg/kg/injection, schedule: Q01DX001 (ip), vehicle: carboxymethylcellulose (CMC).

The list does not hold the whole screen: it is rich in T/C values a quarter to a half above the control, in often repeated tests (any T/C) and in doses without a T/C. Further doses and runs are listed elsewhere. T/C gives the treated animals as a percentage of the vehicle group. Some entries give survivors of the animals treated and no T/C: the source holds a T/C of zero for them, seemingly a mark for toxic or unscored doses. Some doses without a T/C left all or most animals alive at the check, yet need not have been tolerated: the source hardly ever lists a survival T/C far under the control, and the zero likely stands for such cases as well. Survivors were counted at the toxicity check, usually on the fifth day, unless a day is given; later deaths do not show. Schedule codes are those of the source, read here as Q, the interval in days (D) or hours (H), X, the number of doses. Some schedules carry Z or #; the key to these is not given. Some entries were tested several times; their values stand side by side, smallest first. Where survival is the endpoint, this PubChem deposit counts one and a half times the control or more as active, and values a quarter to a half above the control carry no call in these data; other NCI protocols may use other cut-offs. Some T/C values are followed by the survivors on the day toxicity was checked, most often the fifth; without a count, all were alive then.

Consider `C[CH2][Sn]([CH2]C)([CH2]C)[NH]S(=O)(=O)c1ccc(C)cc1`, for which the survivor count is 6 of 6 (dose: 6.25 mg/kg/injection, schedule: Q01DX009 (ip), vehicle: saline with Tween-80); 0 of 6 (dose: 12.5 mg/kg/injection, schedule: Q01DX009 (ip), vehicle: saline with Tween-80); 1 of 6 (dose: 25.0 mg/kg/injection, schedule: Q04DX003 (ip), vehicle: saline); 0 of 6 (dose: 50.0 mg/kg/injection, schedule: Q04DX003 (ip), vehicle: saline); 0 of 6 (dose: 100.0 mg/kg/injection, schedule: Q04DX003 (ip), vehicle: saline); 0 of 6 (dose: 200.0 mg/kg/injection, schedule: Q04DX003 (ip), vehicle: saline). Further, the survivor count (dose: 400.0 mg/kg/injection, schedule: Q04DX003 (ip), vehicle: saline) is reported as 0 of 6.

For `Nc1ncnc2c1c(Br)cn2C1OC(CO)C(O)C1O` (stereo not drawn), the survivor count (dose: 10.0 mg/kg/injection, schedule: Q01DX001 (ip), vehicle: carboxymethylcellulose (CMC)) is 3 of 6; the survivor count (dose: 20.0 mg/kg/injection, schedule: Q01DX001 (ip), vehicle: carboxymethylcellulose (CMC)) is 0 of 6; the survivor count (dose: 40.0 mg/kg/injection, schedule: Q01DX001 (ip), vehicle: carboxymethylcellulose (CMC)) was 0 of 6; the survivor count (dose: 50.0 mg/kg/injection, schedule: Q01DX001 (ip), vehicle: carboxymethylcellulose (CMC)) was 0 of 4; the survivor count (dose: 80.0 mg/kg/injection, schedule: Q01DX001 (ip), vehicle: carboxymethylcellulose (CMC)) is listed as 0 of 6; the survivor count (dose: 100.0 mg/kg/injection, schedule: Q01DX001 (ip), vehicle: carboxymethylcellulose (CMC)) is 0 of 4. The survivor count reads like this: under setting [1], 0 of 4; under setting [2], 0 of 4.

As for `O=C(O)c1cc(Cl)c(Cl)s1`, the survivor count is, setting by setting: (dose: 200.0 mg/kg/injection, schedule: Q04DX003 (ip), vehicle: Klucel (hydroxypropylcellulose) (HPC)) 0 of 6; (dose: 400.0 mg/kg/injection, schedule: Q04DX003 (ip), vehicle: Klucel (hydroxypropylcellulose) (HPC)) 0 of 6.

Turning to `O=C(/C=C/c1ccccc1)NC(=S)Nc1ccccc1F`, the survivor count is, setting by setting: (dose: 50.0 mg/kg/injection, schedule: Q01DX009 (ip), vehicle: saline with Tween-80) 3 of 3; under setting [3], 3 of 3; (dose: 200.0 mg/kg/injection, schedule: Q01DX009 (ip), vehicle: saline with Tween-80) 6 of 6; (dose: 400.0 mg/kg/injection, schedule: Q01DX009 (ip), vehicle: saline with Tween-80) 4 of 6; (dose: 400.0 mg/kg/injection, schedule: Q04DX002 (ip), vehicle: alcohol) 3 of 3. For the same molecule, the T/C under setting [3] was 86 and 90 % of control [5 of 6 alive].

With `CCOC(=O)/C(C)=N\N=C(/CCOC)COC`, the T/C by setting is: (dose: 100.0 mg/kg/injection, schedule: Q01DX009 (ip), vehicle: carboxymethylcellulose (CMC)) 125 % of control; (dose: 200.0 mg/kg/injection, schedule: Q01DX009 (ip), vehicle: carboxymethylcellulose (CMC)) 143 % of control.

As to `ClCCN(CCCl)CCN1c2ccccc2Sc2ccccc21`, the T/C is 132 % of control (dose: 25.0 mg/kg/injection, schedule: Q01DX001 (ip), vehicle: Klucel (hydroxypropylcellulose) (HPC)); 127 % of control (dose: 88.8 mg/kg/injection, schedule: Q01DX001 (ip), vehicle: carboxymethylcellulose (CMC)); 125 [3 of 4 alive] and 129 % of control under setting [1]; 141 % of control under setting [4]. In addition, the survivor count is on record as 5 of 6 (dose: 44.0 mg/kg/injection, schedule: Q01DX015 (ip), vehicle: carboxymethylcellulose (CMC)); 3 of 6 (dose: 50.0 mg/kg/injection, schedule: Q01DX001 (ip), vehicle: Klucel (hydroxypropylcellulose) (HPC)); 5 of 6 (dose: 55.0 mg/kg/injection, schedule: Q04DX003 (ip), vehicle: Klucel (hydroxypropylcellulose) (HPC)); 2 of 6 (dose: 66.0 mg/kg/injection, schedule: Q01DX015 (ip), vehicle: carboxymethylcellulose (CMC)); 6 of 6 (dose: 85.0 mg/kg/injection, schedule: Q04DX003 (ip), vehicle: Klucel (hydroxypropylcellulose) (HPC)); 1 of 6 (dose: 100.0 mg/kg/injection, schedule: Q01DX015 (ip), vehicle: carboxymethylcellulose (CMC)). Further, the survivor count by setting is: (dose: 100.0 mg/kg/injection, schedule: Q04DX003 (ip), vehicle: saline with Tween-80) 6 of 6; (dose: 125.0 mg/kg/injection, schedule: Q04DX003 (ip), vehicle: Klucel (hydroxypropylcellulose) (HPC)) 1 of 6 and 6 of 6; (dose: 200.0 mg/kg/injection, schedule: Q01DX001 (ip), vehicle: Klucel (hydroxypropylcellulose) (HPC)) 2 of 6; under setting [1], 2 of 6; (dose: 200.0 mg/kg/injection, schedule: Q04DX003 (ip), vehicle: saline with Tween-80) 6 of 6; under setting [4], 1 of 4. The survivor count is given as 1 of 6 (dose: 400.0 mg/kg/injection, schedule: Q01DX001 (ip), vehicle: Klucel (hydroxypropylcellulose) (HPC)) and 0 of 4 under setting [2].

Turning to `Cc1ccc(/C(=N\N=C(N)N)c2ccccc2)cc1`, the survivor count reads like this: (dose: 120.0 mg/kg/injection, schedule: Q01DX Z (ip), vehicle: saline) 0 of 6; (dose: 120.0 mg/kg/injection, schedule: Q01DX Z (oral), vehicle: other) 6 of 6; (dose: 240.0 mg/kg/injection, schedule: Q01DX Z (oral), vehicle: other) 1 of 6.

Take `CN(C)N=C(c1ccccc1)c1ccccc1`: the survivor count (dose: 200.0 mg/kg/injection, schedule: Q01DX009 (ip), vehicle: Klucel (hydroxypropylcellulose) (HPC)) is recorded as 1 of 6.

Consider `CC(=O)OCC(OC(C)=O)C(OC(C)=O)C(/C=C/N=[N+]([O-])c1ccccc1)OC(C)=O` (stereo not drawn), for which, where the note is “dose: 400.0 mg/kg/injection, schedule: Q01DX001 (ip), vehicle: saline”, the survivor count is on record as 0 of 4.

For the origin of these results see PubChem BioAssay AID248 (DTP/NCI, 2004).
